At least one structure is not confirmed: it was looked up by name or label, or the drawing left a doubt.
Assay: Body weight, food intake and water intake during alcohol-induced hepatotoxicity study (Example III)
Format: in vivo, Swiss Albino mice
Settings: female mice; Day 5; 10 mg/kg p.o. + alcohol 5 g/kg p.o. twice daily; mean ± SD
Protocol: Swiss Albino male and female mice weighing approximately 30±5 g, 2 month old mice were obtained from National Research Institute of Ayurveda for Drug Development (Govt. of India), Kolkata, and were housed in polypropylene cages at 22±3° C., relative air humidity of 45 to 55%, with 12.00 hr light & dark cycle (lighting on from 6:00 AM to 6:00 PM). Mice were provided a standard pellet chow diet (carbohydrate 65.5%, protein 17.6%, fat 6.6%) and distilled water ad libitum. The mice were acclimatized for one week in the laboratory conditions, before being used in the experiment. All experiments were conducted between 10.00 hr and 14.00 hr. Principles of laboratory animals care (NIH publication no. 85-23, revised 1985) were followed.
Vehicle control animals (“Con Veh”) were administered 0.3% CMC orally for 15 days.
Animals receiving ethanol (“Alc+0.3 CMC”, “3-OH-DBP+Alc”, “3,8-(OH)2-DBP+Alc”) were administered ethanol in 0.3% CMC orally as discussed above.
Results were expressed in terms of mean±SD (n=8). The data were subjected to one way ANOVA followed by Tukey's test using GraphPad Prism 4.0 software to establish statistical significance (*p<0.05, **p<0.01, ***p<0.001 vs. vehicle control; # p<0.05, ## p<0.01, ### p<0.001 vs. animals administered ethanol only).

O=c1oc2cc(O)ccc2c2ccccc12 [3-OH-DBP, 3-hydroxy-dibenzo-alpha-pyrone]
food intake: 8.31.67 gm

Source: patent US20220071952A1, “METHODS OF TREATING AND PREVENTING HEPATOTOXICITY” (Natreon, Inc., priority 2020, published 2022)
